Results reported in article doi:10.1101/203539.
Results are given in words; binding and its absence hold for the method and conditions named. Binding seen in cells or lysates may run through a third protein. Some results given as binding are weak or reduced against the parent protein; the word gives no strength. Tags and fused reporters may be left off the sequences shown.

Molecular target: T1, biotagged Csde1 (cold shock domain protein e1) (UniProt Q91W50)
T1 sequence (chain, biotin on the biotag (biotin ligase BirA coexpressed)): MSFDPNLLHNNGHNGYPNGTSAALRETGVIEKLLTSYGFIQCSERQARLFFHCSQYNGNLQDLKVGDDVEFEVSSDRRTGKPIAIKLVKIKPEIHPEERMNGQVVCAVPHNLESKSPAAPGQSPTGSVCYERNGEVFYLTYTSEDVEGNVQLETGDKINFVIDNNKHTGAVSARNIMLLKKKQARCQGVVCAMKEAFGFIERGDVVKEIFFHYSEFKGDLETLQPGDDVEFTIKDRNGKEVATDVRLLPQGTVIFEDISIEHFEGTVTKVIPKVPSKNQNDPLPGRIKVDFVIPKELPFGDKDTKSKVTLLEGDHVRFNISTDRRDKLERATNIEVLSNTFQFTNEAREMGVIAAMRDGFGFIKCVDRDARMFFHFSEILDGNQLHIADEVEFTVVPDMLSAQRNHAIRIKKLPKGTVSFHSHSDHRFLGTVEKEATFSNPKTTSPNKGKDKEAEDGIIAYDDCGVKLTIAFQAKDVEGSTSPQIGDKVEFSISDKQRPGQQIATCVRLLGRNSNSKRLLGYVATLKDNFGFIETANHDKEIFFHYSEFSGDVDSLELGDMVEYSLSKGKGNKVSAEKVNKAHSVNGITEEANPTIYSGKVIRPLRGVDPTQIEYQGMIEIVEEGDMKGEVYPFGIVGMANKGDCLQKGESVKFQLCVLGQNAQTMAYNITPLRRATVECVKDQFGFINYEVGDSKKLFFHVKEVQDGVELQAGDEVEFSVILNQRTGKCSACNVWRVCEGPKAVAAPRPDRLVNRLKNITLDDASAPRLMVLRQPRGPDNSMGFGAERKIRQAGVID
Assay: pull-down

- binding: binds
B1: Strap (serine-threonine receptor associated-protein) (protein, UniProt Q9Z1Z2 1-350)
chain: MAMRQTPLTCSGHTRPVVDLAFSGITPYGYFLISACKDGKPMLRQGDTGDWIGTFLGHKGAVWGATLNKDATKAATAAADFTAKVWDAVSGDELMTLAHKHIVKTVDFTQDSNYLLTGGQDKLLRIYDLNKPEAEPKEISGHTSGIKKALWCSDDKQILSADDKTVRLWDHATMTEVKSLNFNMSVSSMEYIPEGEILVITYGRSIAFHSAVSLEPIKSFEAPATINSASLHPEKEFLVAGGEDFKLYKYDYNSGEELESYKGHFGPIHCVRFSPDGELYASGSEDGTLRLWQTVVGKTYGLWKCVLPEEDSGELAKPKIGFPETAEEELEEIASENSDSIYSSTPEVKA
